The source of these data is publication PMC5520689.

Results are given in words; binding and its absence hold for the method and conditions named. In cells and extracts the contact can be indirect. Sequences can lack the tags named with a protein.

This assay deals with T1, STAU1 (human (endogenous in the paper's human cell lines; line not stated for this experiment)), O95793.
T1 chain: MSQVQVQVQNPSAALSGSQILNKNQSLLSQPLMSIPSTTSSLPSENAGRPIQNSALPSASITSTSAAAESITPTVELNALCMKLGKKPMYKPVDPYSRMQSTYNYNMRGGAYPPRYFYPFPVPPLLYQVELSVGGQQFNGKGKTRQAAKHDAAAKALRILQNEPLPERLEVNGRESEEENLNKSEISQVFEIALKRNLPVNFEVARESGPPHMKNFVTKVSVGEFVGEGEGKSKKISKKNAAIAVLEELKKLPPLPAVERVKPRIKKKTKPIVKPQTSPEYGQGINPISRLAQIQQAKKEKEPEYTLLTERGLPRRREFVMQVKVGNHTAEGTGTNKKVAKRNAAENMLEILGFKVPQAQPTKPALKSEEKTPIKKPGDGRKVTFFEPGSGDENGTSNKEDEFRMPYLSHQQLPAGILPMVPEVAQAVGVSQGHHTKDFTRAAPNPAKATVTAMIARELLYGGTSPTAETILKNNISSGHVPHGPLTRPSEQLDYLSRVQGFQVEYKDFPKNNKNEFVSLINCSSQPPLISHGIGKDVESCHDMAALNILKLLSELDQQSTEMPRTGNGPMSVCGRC
The assay is described as follows: co-IP; co-immunoprecipitation assay (Supplementary Figure S16); cell line, antibody and buffer not told in the main text. The conditions noted are these: remark: other sources report otherwise.

B1: ADAR1, P55265 1-1226 (enzyme)
chain: MNPRQGYSLSGYYTHPFQGYEHRQLRYQQPGPGSSPSSFLLKQIEFLKGQLPEAPVIGKQTPSLPPSLPGLRPRFPVLLASSTRGRQVDIRGVPRGVHLRSQGLQRGFQHPSPRGRSLPQRGVDCLSSHFQELSIYQDQEQRILKFLEELGEGKATTAHDLSGKLGTPKKEINRVLYSLAKKGKLQKEAGTPPLWKIAVSTQAWNQHSGVVRPDGHSQGAPNSDPSLEPEDRNSTSVSEDLLEPFIAVSAQAWNQHSGVVRPDSHSQGSPNSDPGLEPEDSNSTSALEDPLEFLDMAEIKEKICDYLFNVSDSSALNLAKNIGLTKARDINAVLIDMERQGDVYRQGTTPPIWHLTDKKRERMQIKRNTNSVPETAPAAIPETKRNAEFLTCNIPTSNASNNMVTTEKVENGQEPVIKLENRQEARPEPARLKPPVHYNGPSKAGYVDFENGQWATDDIPDDLNSIRAAPGEFRAIMEMPSFYSHGLPRCSPYKKLTECQLKNPISGLLEYAQFASQTCEFNMIEQSGPPHEPRFKFQVVINGREFPPAEAGSKKVAKQDAAMKAMTILLEEAKAKDSGKSEESSHYSTEKESEKTAESQTPTPSATSFFSGKSPVTTLLECMHKLGNSCEFRLLSKEGPAHEPKFQYCVAVGAQTFPSVSAPSKKVAKQMAAEEAMKALHGEATNSMASDNQPEGMISESLDNLESMMPNKVRKIGELVRYLNTNPVGGLLEYARSHGFAAEFKLVDQSGPPHEPKFVYQAKVGGRWFPAVCAHSKKQGKQEAADAALRVLIGENEKAERMGFTEVTPVTGASLRRTMLLLSRSPEAQPKTLPLTGSTFHDQIAMLSHRCFNTLTNSFQPSLLGRKILAAIIMKKDSEDMGVVVSLGTGNRCVKGDSLSLKGETVNDCHAEIISRRGFIRFLYSELMKYNSQTAKDSIFEPAKGGEKLQIKKTVSFHLYISTAPCGDGALFDKSCSDRAMESTESRHYPVFENPKQGKLRTKVENGEGTIPVESSDIVPTWDGIRLGERLRTMSCSDKILRWNVLGLQGALLTHFLQPIYLKSVTLGYLFSQGHLTRAICCRVTRDGSAFEDGLRHPFIVNHPKVGRVSIYDSKRQSGKTKETSVNWCLADGYDLEILDGTRGTVDGPRNELSRVSKKNIFLLFKKLCSFRYRRDLLRLSYGEAKKAARDYETAKNYFKKGLKDMGYGNWISKPQEEKNFYLCPV
Turning to B1, the binding entry is on record as “no binding”.
